Results taken from patent publication US20210063414A1, “METHODS FOR PREVENTING AND/OR TREATING BONE LOSS CONDITIONS BY MODULATING IRISIN” (Dana-Farber Cancer Institute, Inc., priority 2018, published 2021).
These are yes or no findings as the source states them, for the method shown. Binding seen in cells or lysates may run through a third protein. These calls come from enrichment with a bait or labelling near it, and not all partners need be listed. Tags and fused reporters may be left off the sequences shown.

Chains of the proteins cited; added tags and fusions are not shown. Residues count along the entry.
UniProt P09055, residues 21-798: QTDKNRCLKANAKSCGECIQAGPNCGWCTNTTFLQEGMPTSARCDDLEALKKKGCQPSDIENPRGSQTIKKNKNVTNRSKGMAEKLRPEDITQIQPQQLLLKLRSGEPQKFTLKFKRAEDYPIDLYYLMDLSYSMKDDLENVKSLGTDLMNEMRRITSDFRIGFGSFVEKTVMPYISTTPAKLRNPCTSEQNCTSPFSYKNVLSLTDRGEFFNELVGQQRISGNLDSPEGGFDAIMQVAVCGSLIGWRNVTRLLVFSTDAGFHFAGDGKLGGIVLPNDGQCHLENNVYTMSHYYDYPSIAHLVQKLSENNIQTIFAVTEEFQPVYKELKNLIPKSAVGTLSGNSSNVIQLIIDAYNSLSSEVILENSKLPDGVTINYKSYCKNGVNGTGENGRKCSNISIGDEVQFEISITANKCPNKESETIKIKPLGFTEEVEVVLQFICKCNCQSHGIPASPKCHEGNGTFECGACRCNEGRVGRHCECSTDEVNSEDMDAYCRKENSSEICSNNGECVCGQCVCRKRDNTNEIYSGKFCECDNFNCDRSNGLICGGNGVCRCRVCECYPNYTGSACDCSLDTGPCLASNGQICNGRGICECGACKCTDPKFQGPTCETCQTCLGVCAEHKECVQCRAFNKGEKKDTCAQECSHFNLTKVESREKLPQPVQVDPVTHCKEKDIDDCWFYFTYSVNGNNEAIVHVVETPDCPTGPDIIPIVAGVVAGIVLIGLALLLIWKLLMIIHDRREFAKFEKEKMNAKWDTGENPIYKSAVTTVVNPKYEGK

Target: Integrin beta-1 (Itgb1) of MLO-Y4 cells (mouse) (UniProt P09055)
Experiment: DTSSP cross-linking on MLO-Y4 cells, his-tag pull-down, mass spectrometry

- binding: binds
B1: His-tag recombinant irisin (irisin (human/mouse) with a C-terminal 10 his tag, produced in HEK293 cells) (ligand, not shown: small tags and cut ends)
chain: DSPSAPVNVTVRHLKANSAVVSWDVLEDEVVIGFAISQQKKDVRMLRFIQEVNTTTRSCALWDLEEDTEYIVHVQAISIQGQSPASEPVLFKTPREAEKMASKNKDEVTMKE
